The text below walks through data of article doi:10.1101/459065.

Amino acid sequences for entries named in this document (tags omitted). A change or cut given only in a name is not applied to a line headed by its entry.
UniProt P04118: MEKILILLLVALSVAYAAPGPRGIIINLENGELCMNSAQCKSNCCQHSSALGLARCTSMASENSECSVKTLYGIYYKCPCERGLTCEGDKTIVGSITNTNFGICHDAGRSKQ

In assay [1] the target is CLPS (UniProt P04118). Kind of assay: pull-down.
Assay [2] addresses CLPS (UniProt P04118). Kind of assay: pull-down. The source holds these as a separate data set.

Read-outs that look alike come from different tables or passages of the source. Results are given in words; binding and its absence hold for the method and conditions named. A result given as binding can be weak or reduced; the word gives no strength.

B1: CUTA (protein, UniProt O60888 33-179)
chain: RLLLLPRVLLTMASGSPPTQPSPASDSGSGYVPGSVSAAFVTCPNEKVAKEIARAVVEKRLAACVNLIPQITSIYEWKGKIEEDSEVLMMIKTQSSLVPALTDFVRSVHPYEVAEVIALPVEQGNFPYLQWVRQVTESVSDSITVLP
For B1, the binding result with CLPS [1] and with CLPS [2] was “binds” each time.
